Assay results as given in the supplement of paper PMC10849652.
This is one part of the list.

The chains behind the UniProt entries cited, without tags or fusion partners. Where a name states a change or a piece, a line headed by the entry shows the natural chain unless it says otherwise.
UniProt Q96C19: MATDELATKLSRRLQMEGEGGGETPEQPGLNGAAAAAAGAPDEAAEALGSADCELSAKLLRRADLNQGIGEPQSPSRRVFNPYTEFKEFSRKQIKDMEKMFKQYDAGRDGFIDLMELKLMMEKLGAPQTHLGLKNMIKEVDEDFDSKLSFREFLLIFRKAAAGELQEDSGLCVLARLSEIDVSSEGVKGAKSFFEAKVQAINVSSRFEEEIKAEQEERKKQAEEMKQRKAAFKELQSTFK
UniProt O43402: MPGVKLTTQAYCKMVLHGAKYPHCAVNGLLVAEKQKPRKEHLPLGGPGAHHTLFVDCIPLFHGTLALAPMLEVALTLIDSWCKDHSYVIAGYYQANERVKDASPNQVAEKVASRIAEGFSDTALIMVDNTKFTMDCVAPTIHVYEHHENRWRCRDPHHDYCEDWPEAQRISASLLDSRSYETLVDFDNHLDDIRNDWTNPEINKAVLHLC
UniProt P41214: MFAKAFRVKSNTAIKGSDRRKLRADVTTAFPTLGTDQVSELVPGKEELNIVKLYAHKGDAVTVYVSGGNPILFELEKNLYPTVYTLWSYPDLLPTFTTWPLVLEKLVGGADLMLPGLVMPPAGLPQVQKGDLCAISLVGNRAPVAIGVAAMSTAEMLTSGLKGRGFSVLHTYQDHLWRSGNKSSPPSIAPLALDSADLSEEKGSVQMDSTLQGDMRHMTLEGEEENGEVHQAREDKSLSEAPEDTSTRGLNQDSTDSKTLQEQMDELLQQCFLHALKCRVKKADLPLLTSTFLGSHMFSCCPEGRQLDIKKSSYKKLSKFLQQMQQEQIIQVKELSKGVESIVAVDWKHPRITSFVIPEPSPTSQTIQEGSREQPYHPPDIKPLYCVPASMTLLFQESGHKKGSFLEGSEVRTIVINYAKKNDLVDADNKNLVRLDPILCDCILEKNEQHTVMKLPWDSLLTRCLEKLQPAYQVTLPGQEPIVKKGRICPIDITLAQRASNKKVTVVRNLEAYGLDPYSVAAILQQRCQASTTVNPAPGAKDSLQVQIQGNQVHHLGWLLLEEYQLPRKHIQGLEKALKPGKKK
UniProt P57772: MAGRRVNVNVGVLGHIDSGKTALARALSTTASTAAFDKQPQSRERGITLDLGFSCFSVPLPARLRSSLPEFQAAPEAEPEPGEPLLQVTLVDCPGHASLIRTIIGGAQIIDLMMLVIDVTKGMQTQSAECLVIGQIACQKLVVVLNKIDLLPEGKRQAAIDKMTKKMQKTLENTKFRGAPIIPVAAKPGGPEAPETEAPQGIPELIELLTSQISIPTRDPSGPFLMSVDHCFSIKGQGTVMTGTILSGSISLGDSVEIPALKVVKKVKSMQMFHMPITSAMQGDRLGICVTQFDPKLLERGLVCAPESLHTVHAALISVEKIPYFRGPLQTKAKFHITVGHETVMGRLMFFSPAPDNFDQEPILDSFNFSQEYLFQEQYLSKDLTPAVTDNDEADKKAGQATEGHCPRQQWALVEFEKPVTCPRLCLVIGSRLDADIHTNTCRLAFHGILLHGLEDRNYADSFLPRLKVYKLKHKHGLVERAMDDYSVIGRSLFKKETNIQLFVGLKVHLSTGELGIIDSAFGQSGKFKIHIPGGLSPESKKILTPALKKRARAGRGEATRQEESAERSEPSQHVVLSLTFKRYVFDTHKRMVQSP
UniProt O00303, whole entry, looked up: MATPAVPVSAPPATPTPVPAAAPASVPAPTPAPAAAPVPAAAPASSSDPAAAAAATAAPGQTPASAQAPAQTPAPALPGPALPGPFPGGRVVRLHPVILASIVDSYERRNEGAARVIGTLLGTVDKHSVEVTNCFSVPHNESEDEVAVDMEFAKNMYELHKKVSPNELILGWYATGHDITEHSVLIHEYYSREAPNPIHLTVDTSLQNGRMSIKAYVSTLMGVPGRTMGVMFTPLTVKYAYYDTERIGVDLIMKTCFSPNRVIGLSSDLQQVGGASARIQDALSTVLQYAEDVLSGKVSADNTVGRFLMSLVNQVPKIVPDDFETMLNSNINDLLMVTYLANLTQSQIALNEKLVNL
UniProt Q8NFI3: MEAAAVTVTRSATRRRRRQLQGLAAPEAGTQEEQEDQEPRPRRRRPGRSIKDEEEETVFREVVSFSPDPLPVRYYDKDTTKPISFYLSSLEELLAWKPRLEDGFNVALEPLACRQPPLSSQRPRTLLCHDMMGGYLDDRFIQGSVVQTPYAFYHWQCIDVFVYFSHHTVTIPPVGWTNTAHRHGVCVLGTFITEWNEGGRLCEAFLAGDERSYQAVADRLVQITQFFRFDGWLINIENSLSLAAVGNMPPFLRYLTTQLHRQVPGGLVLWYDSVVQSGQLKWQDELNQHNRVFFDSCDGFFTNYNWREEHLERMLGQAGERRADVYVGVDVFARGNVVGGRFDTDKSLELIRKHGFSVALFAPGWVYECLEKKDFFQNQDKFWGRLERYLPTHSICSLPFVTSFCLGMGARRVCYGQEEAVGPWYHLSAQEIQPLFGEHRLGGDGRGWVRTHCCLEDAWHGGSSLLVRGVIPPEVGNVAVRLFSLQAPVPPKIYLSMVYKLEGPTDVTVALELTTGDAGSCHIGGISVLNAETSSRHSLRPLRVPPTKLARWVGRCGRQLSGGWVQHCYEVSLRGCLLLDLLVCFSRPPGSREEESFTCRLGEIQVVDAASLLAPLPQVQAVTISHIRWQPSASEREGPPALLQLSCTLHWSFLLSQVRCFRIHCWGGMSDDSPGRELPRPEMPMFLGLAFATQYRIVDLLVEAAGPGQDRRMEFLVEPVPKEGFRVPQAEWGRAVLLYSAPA
UniProt Q6IA86: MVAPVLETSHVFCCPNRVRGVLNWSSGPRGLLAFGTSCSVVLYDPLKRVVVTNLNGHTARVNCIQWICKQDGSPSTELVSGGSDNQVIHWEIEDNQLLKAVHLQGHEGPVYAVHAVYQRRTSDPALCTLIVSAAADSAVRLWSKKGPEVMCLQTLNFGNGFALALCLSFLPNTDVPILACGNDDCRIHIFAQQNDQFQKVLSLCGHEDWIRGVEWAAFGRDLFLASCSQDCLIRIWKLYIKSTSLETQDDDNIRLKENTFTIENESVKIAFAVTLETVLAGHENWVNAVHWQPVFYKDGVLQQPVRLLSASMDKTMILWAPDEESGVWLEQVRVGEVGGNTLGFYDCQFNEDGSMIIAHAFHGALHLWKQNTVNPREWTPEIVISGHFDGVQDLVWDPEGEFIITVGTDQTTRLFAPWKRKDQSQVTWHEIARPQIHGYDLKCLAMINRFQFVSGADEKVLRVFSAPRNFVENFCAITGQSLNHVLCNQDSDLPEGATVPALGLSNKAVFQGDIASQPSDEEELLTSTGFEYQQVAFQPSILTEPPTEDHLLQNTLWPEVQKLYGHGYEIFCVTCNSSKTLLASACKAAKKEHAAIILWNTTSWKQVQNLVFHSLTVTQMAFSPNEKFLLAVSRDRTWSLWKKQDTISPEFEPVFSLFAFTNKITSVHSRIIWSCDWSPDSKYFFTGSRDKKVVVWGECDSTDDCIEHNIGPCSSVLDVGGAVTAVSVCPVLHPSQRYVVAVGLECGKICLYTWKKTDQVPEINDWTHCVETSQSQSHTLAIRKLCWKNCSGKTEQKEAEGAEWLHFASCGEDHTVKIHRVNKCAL
UniProt P13929, whole entry, looked up: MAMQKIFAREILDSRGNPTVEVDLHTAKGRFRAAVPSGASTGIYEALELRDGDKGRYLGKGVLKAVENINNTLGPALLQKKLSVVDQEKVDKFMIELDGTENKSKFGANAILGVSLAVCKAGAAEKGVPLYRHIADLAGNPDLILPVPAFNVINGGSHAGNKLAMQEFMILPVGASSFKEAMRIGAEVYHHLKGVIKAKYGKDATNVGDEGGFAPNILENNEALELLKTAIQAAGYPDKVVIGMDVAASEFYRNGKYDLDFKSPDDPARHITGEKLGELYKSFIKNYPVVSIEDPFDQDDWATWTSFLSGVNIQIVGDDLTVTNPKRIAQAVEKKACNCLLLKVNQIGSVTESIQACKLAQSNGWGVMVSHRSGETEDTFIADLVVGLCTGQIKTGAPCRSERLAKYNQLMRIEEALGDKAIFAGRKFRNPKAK
UniProt P20042, whole entry, looked up: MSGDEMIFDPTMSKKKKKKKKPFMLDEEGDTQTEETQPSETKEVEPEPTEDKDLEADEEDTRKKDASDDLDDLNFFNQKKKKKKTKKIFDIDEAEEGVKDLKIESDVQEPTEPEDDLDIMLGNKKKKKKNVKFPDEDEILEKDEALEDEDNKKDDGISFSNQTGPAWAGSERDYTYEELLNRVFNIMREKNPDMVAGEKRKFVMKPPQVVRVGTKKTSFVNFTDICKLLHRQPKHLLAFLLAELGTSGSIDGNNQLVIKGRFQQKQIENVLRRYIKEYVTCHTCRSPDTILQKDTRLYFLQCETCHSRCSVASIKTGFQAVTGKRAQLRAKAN
UniProt Q8IZ81: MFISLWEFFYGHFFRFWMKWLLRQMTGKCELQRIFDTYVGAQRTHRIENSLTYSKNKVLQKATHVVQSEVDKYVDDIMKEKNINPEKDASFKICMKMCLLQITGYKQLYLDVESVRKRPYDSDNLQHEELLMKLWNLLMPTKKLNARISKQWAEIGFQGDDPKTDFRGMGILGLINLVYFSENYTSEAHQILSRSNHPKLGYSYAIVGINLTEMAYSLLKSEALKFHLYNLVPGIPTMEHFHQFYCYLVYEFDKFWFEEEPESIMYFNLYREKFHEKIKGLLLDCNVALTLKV
UniProt O94919: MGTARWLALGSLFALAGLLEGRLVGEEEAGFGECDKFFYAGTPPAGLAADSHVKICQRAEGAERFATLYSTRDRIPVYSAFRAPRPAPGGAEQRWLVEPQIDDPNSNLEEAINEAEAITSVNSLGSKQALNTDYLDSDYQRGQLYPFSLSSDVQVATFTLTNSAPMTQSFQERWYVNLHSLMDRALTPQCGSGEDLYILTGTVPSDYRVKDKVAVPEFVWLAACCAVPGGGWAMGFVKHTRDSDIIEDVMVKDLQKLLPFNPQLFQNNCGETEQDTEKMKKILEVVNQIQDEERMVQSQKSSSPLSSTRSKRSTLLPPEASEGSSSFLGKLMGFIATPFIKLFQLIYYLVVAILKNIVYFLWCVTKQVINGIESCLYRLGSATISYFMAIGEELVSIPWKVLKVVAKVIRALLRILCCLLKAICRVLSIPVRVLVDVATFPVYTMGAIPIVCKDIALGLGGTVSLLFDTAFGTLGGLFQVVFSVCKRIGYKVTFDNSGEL
UniProt P06733, whole entry, looked up: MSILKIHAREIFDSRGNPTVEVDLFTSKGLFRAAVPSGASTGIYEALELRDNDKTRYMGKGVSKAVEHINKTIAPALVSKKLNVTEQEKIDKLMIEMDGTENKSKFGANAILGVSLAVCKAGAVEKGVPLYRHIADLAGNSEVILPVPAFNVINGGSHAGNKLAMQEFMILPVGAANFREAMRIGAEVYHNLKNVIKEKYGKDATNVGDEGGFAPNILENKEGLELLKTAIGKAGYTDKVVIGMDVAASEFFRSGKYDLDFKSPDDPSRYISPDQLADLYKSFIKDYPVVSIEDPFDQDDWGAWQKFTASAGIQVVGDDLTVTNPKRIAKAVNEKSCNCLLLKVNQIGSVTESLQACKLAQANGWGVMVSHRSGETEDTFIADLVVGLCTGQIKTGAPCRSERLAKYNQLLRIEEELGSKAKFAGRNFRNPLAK
UniProt Q9BQ52: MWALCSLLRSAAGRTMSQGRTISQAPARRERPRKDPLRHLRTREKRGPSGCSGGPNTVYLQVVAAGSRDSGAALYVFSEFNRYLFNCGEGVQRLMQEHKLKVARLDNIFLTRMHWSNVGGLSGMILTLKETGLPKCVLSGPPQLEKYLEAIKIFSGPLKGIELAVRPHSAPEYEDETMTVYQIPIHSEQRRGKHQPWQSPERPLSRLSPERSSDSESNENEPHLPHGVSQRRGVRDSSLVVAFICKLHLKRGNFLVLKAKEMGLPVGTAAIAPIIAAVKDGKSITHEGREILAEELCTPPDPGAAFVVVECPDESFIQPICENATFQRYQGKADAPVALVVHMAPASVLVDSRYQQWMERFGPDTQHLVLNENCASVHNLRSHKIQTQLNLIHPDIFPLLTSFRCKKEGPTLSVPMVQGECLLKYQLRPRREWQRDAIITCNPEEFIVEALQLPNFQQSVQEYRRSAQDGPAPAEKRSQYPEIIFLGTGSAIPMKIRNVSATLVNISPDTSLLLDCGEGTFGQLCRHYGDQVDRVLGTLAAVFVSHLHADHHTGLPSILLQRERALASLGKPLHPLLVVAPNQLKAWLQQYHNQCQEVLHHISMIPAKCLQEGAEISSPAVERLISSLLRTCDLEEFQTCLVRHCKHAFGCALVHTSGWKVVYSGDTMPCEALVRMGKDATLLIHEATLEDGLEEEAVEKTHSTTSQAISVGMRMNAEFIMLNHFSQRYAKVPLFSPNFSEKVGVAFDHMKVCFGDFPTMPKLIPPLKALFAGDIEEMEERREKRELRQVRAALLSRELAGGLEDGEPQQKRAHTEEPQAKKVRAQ

Tests used:
Assay in all cases: log2 fold change, soluble protein after heating vs DMSO (PISA); higher = thermal stabilisation; K562 cells, 10 uM, 30 min; active = over 0.2 and 3.5 SD of the protein, either way, in both replicates (recomputed)
[1] = compound: CN1CCN(CCOc2cc(OC3CCOCC3)c3c(Nc4c(Cl)ccc5c4OCO5)ncnc3c2)CC1 [saracatinib]
Method in brief: (§1)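 K562 cells at 2×10^6 cells/mL were treated with 10 μM compound for 30 min. Aliquots were heated for 3 min across 48°C-58°C, pooled, and extracted in PBS with 0.5% NP-40 at 4°C; soluble protein was the supernatant after 21,000xg for 90 min. Soluble protein was quantified by TMTpro 16plex LC-MS/MS with channel sums equalised, and reported as log2 fold change in thermal stability against DMSO controls, with values from duplicates.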

[2] = compound: CN1CCN(c2nc(C3=C(c4c[nH]c5ccccc45)C(=O)NC3=O)c3ccccc3n2)CC1 [sotrastaurin]
Method in brief: as §1

[3] = compound: CN1CC[C@H](c2c(O)cc(O)c3c(=O)cc(-c4ccccc4Cl)oc23)[C@H](O)C1 [alvocidib]
Method in brief: as §1

[4] = compound: CN1CCc2c(c3ccccc3n2Cc2ccc(C(=O)NO)cc2)C1 [Tubastatin A]
Method in brief: as §1

[5] = compound: CNC(=O)C1=CC=CC=C1NC2=NC(=NC=C2Cl)NC3=C(C=C(C=C3)N4CCOCC4)OC
Method in brief: as §1

[6] = compound: CNC(=O)c1ccc(Nc2ncc(C(F)(F)F)c(NCc3nccnc3N(C)S(C)(=O)=O)n2)cc1 [defactinib]
Method in brief: as §1

[7] = compound: CNCc1ccc(-c2[nH]c3cc(F)cc4c3c2CCNC4=O)cc1 [rucaparib]
Method in brief: as §1

[8] = compound: CNc1nc(-c2ccc3c(N)n[nH]c3c2)cc(N2C[C@@H](C(=O)NC3CCCCC3)CC[C@H]2C)n1
Method in brief: as §1

[9] = compound: COC(=O)N[C@@H](C)CNc1nccc(-c2cn(C(C)C)nc2-c2cc(Cl)cc(NS(C)(=O)=O)c2F)n1 [encorafenib]
Method in brief: as §1

[10] = compound: COC(=O)[C@H](CCSC)NC(=O)C1=C(C=C(C=C1)NC[C@H](CS)N)C2=CC=CC=C2
Method in brief: as §1

[11] = compound: COC1=CC=C(C=C1)CN2C=CC3=C2C=C(C=C3)C(=O)NO
Method in brief: as §1

[12] = compound: CON(C)C(=O)N1N=C(c2cc(F)ccc2F)S[C@@]1(CCCN)c1ccccc1 [filanesib]
Method in brief: as §1

[13] = compound: CO[C@H]1C[C@@H]2CC[C@@H](C)[C@@](O)(O2)C(=O)C(=O)N2CCCC[C@H]2C(=O)O[C@H]([C@H](C)C[C@@H]2CC[C@H](n3cnnn3)[C@H](OC)C2)CC(=O)[C@H](C)/C=C(\C)[C@@H](O)[C@@H](OC)C(=O)[C@H](C)C[C@H](C)/C=C/C=C/C=C/1C [zotarolimus]
Method in brief: as §1

[14] = compound: COc1cc(C(=O)O)ccc1NC(=O)[C@@H]1N[C@@H](CC(C)(C)C)[C@](C#N)(c2ccc(Cl)cc2F)[C@H]1c1cccc(Cl)c1F [idasanutlin]
Method in brief: as §1

[15] = compound: COc1cc(Nc2ncc3c(n2)-c2ccc(Cl)cc2C(c2c(F)cccc2OC)=NC3)ccc1C(=O)O [alisertib]
Method in brief: as §1

[16] = compound: COc1cc2nc(-c3cc(F)ccc3O)nc(N[C@@H]3CNC[C@H]3C(C)(C)O)c2cc1OC
Method in brief: as §1

[17] = compound: COc1cc2ncnc(Nc3ccc(F)c(Cl)c3)c2cc1OCCCN1CCOCC1 [gefitinib]
Method in brief: as §1

[18] = compound: COc1cccc2cc(-c3nc([C@H]4CC[C@H](C(=O)O)CC4)n4ncnc(N)c34)[nH]c12
Method in brief: as §1

[19] = compound: CS(=O)(=O)CCNCc1ccc(-c2ccc3ncnc(Nc4ccc(OCc5cccc(F)c5)c(Cl)c4)c3c2)o1 [lapatinib]
Method in brief: as §1

[20] = compound: CS(=O)(=O)N1CCN(Cc2cc3nc(-c4cccc5[nH]ncc45)nc(N4CCOCC4)c3s2)CC1 [pictilisib]
Method in brief: as §1

Measured: log2 fold change

EFHD2 (UniProt Q96C19)
inactive: [1] 0.03 | [2] -0.041 | [3] 0.037 | [4] 0.023 | [5] 0.114 | [6] -0.018 | [7] -0.083 | [8] -0.119 | [9] 0.07 | [10] -0.049 | [11] -0.023 | [12] -0.215 | [13] 0.061 | [14] -0.051 | [15] -0.014 | [16] 0.111 | [17] -0.052 | [18] -0.025 | [19] -0.04 | [20] 0.063

EMC8 (UniProt O43402)
inactive: [1] 0.008 | [2] -0.052 | [3] -0.022 | [4] -0.007 | [5] 0.03 | [6] -0.041 | [7] 0.051 | [8] -0.071 | [9] -0.018 | [10] -0.001 | [11] -0.025 | [12] -0.061 | [13] -0.012 | [14] -0.028 | [15] 0.021 | [16] 0.022 | [17] 0.005 | [18] 0.014 | [19] 0.013 | [20] 0.004

EIF2D (UniProt P41214)
inactive: [1] -0.245 | [2] -0.267 | [3] -0.002 | [4] 0.042 | [5] 0.027 | [6] -0.012 | [7] 0.169 | [8] 0.044 | [9] 0.224 | [10] -0.112 | [11] 0.017 | [12] 0.077 | [13] 0.045 | [14] -0.019 | [15] -0.028 | [16] 0.042 | [17] 0.071 | [18] -0.195 | [19] 0.092 | [20] -0.015

EIF3E (UniProt P60228)
inactive: [1] -0.119 | [2] -0.272 | [3] 0.034 | [4] 0.13 | [5] 0.137 | [6] -0.03 | [7] 0.315 | [8] 0.127 | [9] 0.203 | [10] -0.1 | [11] 0.038 | [12] 0.099 | [13] 0.055 | [14] 0.071 | [15] -0.06 | [16] 0.035 | [17] 0.054 | [18] -0.217 | [19] 0.003 | [20] -0.122

EEFSEC (UniProt P57772)
inactive: [1] -0.05 | [2] -0.159 | [3] 0.008 | [4] -0.062 | [5] -0.055 | [6] -0.034 | [7] 0.116 | [8] -0.017 | [9] -0.03 | [10] 0.005 | [11] -0.066 | [12] -0.078 | [13] 0.03 | [14] 0.012 | [15] 0.043 | [16] -0.009 | [17] 0 | [18] -0.092 | [19] -0.012 | [20] -0.083

EIF3F (UniProt O00303)
inactive: [1] -0.052 | [2] -0.141 | [3] -0.014 | [4] 0.052 | [5] 0.002 | [6] -0.021 | [7] 0.118 | [8] 0.028 | [9] 0.064 | [10] -0.063 | [11] -0.046 | [12] 0.037 | [13] 0.075 | [14] -0.021 | [15] -0.043 | [16] -0.002 | [17] -0.003 | [18] -0.111 | [19] 0.002 | [20] -0.01

2 entries drawn at random from those above:
EIF2D (UniProt P41214)
inactive: [1] -0.245 | [2] -0.267 | [3] -0.002 | [4] 0.042 | [5] 0.027 | [6] -0.012 | [7] 0.169 | [8] 0.044 | [9] 0.224 | [10] -0.112 | [11] 0.017 | [12] 0.077 | [13] 0.045 | [14] -0.019 | [15] -0.028 | [16] 0.042 | [17] 0.071 | [18] -0.195 | [19] 0.092 | [20] -0.015

EMC8 (UniProt O43402)
inactive: [1] 0.008 | [2] -0.052 | [3] -0.022 | [4] -0.007 | [5] 0.03 | [6] -0.041 | [7] 0.051 | [8] -0.071 | [9] -0.018 | [10] -0.001 | [11] -0.025 | [12] -0.061 | [13] -0.012 | [14] -0.028 | [15] 0.021 | [16] 0.022 | [17] 0.005 | [18] 0.014 | [19] 0.013 | [20] 0.004

More records follow.

ENGASE (UniProt Q8NFI3)
inactive: [1] 0.043 | [2] 0.038 | [3] 0.017 | [4] 0.03 | [5] -0.034 | [6] -0.046 | [7] 0 | [8] -0.097 | [9] -0.019 | [10] 0.007 | [11] 0.025 | [12] 0.028 | [13] 0.061 | [14] -0.094 | [15] 0.014 | [16] -0.005 | [17] 0.006 | [18] 0.028 | [19] 0.066 | [20] 0.021

ELP2 isoform 6 (UniProt Q6IA86)
inactive: [1] 0.038 | [2] -0.001 | [3] -0.004 | [4] -0.021 | [5] 0.018 | [6] -0.005 | [7] 0.019 | [8] -0.032 | [9] 0.02 | [10] 0.014 | [11] -0.067 | [12] -0.034 | [13] 0.013 | [14] -0.013 | [15] -0.005 | [16] -0.004 | [17] -0.01 | [18] 0.038 | [19] -0.022 | [20] 0.013

ENO3 (UniProt P13929)
inactive: [1] 0.071 | [2] -0.058 | [3] -0.043 | [4] -0.009 | [5] 0.092 | [6] 0.015 | [7] -0.014 | [8] -0.003 | [9] -0.026 | [10] 0.027 | [11] 0.173 | [12] -0.076 | [13] 0.024 | [14] -0.049 | [15] -0.043 | [16] -0.1 | [17] -0.064 | [18] -0.054 | [19] 0.058 | [20] -0.037

EIF2S2 (UniProt P20042)
inactive: [1] -0.019 | [2] 0.012 | [3] 0.092 | [4] -0.027 | [5] -0.047 | [6] 0.113 | [7] 0.152 | [8] 0.014 | [9] 0.053 | [10] 0.035 | [11] -0.027 | [12] 0.15 | [13] -0.006 | [14] 0.073 | [15] -0.064 | [16] 0.04 | [17] -0.007 | [18] -0.103 | [19] -0.008 | [20] -0.231

ELMOD2 (UniProt Q8IZ81)
inactive: [1] 0.01 | [2] -0.009 | [3] -0.088 | [4] -0.007 | [5] 0.044 | [6] -0.051 | [7] -0.018 | [8] -0.069 | [9] 0.001 | [10] -0.025 | [11] -0.004 | [12] -0.032 | [13] 0 | [14] -0.05 | [15] -0.027 | [16] 0.059 | [17] -0.003 | [18] 0.021 | [19] -0.066 | [20] -0.003

ELOB (UniProt Q15370)
inactive: [1] -0.034 | [2] -0.039 | [3] -0.014 | [4] -0.022 | [5] 0.035 | [6] -0.023 | [7] -0.066 | [8] -0.004 | [9] 0.026 | [10] -0.004 | [11] 0.015 | [12] -0.006 | [13] 0.042 | [14] -0.032 | [15] -0.078 | [16] 0.022 | [17] 0.009 | [18] 0.007 | [19] -0.037 | [20] 0.038

EMC2 (UniProt Q15006)
inactive: [1] 0.002 | [2] 0.021 | [3] -0.024 | [4] 0.023 | [5] 0.005 | [6] -0.02 | [7] -0.078 | [8] -0.032 | [9] -0.007 | [10] 0.006 | [11] 0.14 | [12] -0.005 | [13] 0.003 | [14] -0.075 | [15] -0.077 | [16] 0.009 | [17] 0.025 | [18] 0.032 | [19] 0.03 | [20] 0.002

ENDOD1 (UniProt O94919)
inactive: [1] 0.039 | [2] 0.042 | [3] 0.049 | [4] -0.05 | [5] -0.014 | [6] -0.029 | [7] 0.053 | [8] -0.104 | [9] -0.034 | [10] 0.035 | [11] -0.009 | [12] 0.012 | [13] -0.076 | [14] -0.007 | [15] 0.042 | [16] 0.023 | [17] 0.023 | [18] 0.091 | [19] -0.019 | [20] 0.06

ENO1 isoform 2 (UniProt P06733)
inactive: [1] -0.051 | [2] -0.139 | [3] 0.072 | [4] 0.202 | [5] -0.087 | [6] -0.029 | [7] 0.075 | [8] 0.025 | [9] -0.129 | [10] -0.01 | [11] 0.28 | [12] -0.137 | [13] -0.045 | [14] 0.042 | [15] -0.001 | [16] 0.162 | [17] 0.001 | [18] 0.042 | [19] -0.085 | [20] 0.102

ELAC2 (UniProt Q9BQ52)
inactive: [1] 0.033 | [2] 0.055 | [3] -0.018 | [4] -0.049 | [5] -0.03 | [6] -0.017 | [7] -0.024 | [8] -0.005 | [9] -0.017 | [10] -0.003 | [11] -0.028 | [12] -0.028 | [13] -0.022 | [14] -0.033 | [15] 0.02 | [16] -0.001 | [17] -0.018 | [18] 0.063 | [19] 0 | [20] 0.106
